Measurements reported in PubChem BioAssay AID1259405 (NCATS, 2018).
This is an unselected part of about 50,000 reagents. Of all reagents, about 4,000 (8%) were called active. 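Mouse siRNA library applied to hamster cells; one well for each siRNA.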 A number with no mark means an inactive call. The numbers tell different reagents against one gene apart. No sequences are given here.

Screen: 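Mouse-designed siRNAs used to find CHO productivity engineering targets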 (primary screen)
Cells: Chinese hamster CHO-K1 ovary cells with stable secreted eGFP expression
Knock-down reagent: single siRNA against mouse genes, 0.8 pmol siRNA per well (2 µl of 400 nM stock)
Duration: 3 days
Measurement: 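Per-well intracellular GFP measured by laser scanning cytometry, plus viability from ATP luminescence, each relative to plate median of non-targeting control wells, in %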
Direction: GFP, % of control: higher = more GFP per well, higher productivity; viability (ATP), % of control: higher = more viable cells (more ATP)
Rule for the call: 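a knock-down is called active if GFP reaches 120% or more of non-targeting control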

no.	target	reagent no.	GFP, % of control	viability (ATP), % of control
1	Caln1 (calneuron 1)	1	61.1	70.7
2	Caln1 (calneuron 1)	2	58	46
3	Caln1 (calneuron 1)	3	84	60.1
4	Ints6 (integrator complex subunit 6)	1	88.4	69.5
5	Ints6 (integrator complex subunit 6)	2	64.1	60.3
6	Ints6 (integrator complex subunit 6)	3	95.1	104
7	Or4c104 (olfactory receptor family 4 subfamily C member 104)	1	52.2	67.8
8	Or4c104 (olfactory receptor family 4 subfamily C member 104)	2	46.1	66.1
9	Or4c104 (olfactory receptor family 4 subfamily C member 104)	3	62.3	75.1
10	Mup4 (major urinary protein 4)	1	53	59.3
11	Mup4 (major urinary protein 4)	2	73.6	73.3
12	Mup4 (major urinary protein 4)	3	57.6	58.7
13	Impa1 (inositol (myo)-1(or 4)-monophosphatase 1)	1	81.1	51.3
14	Impa1 (inositol (myo)-1(or 4)-monophosphatase 1)	2	97.9	91.7
15	Impa1 (inositol (myo)-1(or 4)-monophosphatase 1)	3	83.8	78
16	Or2w2 (olfactory receptor family 2 subfamily W member 2)	1	68.9	70.2
17	Or2w2 (olfactory receptor family 2 subfamily W member 2)	2	78	81.2
18	Or2w2 (olfactory receptor family 2 subfamily W member 2)	3	71	70.8
19	Lingo1 (leucine rich repeat and Ig domain containing 1)	1	149 (active)	97.8
20	Lingo1 (leucine rich repeat and Ig domain containing 1)	2	97.8	68.4
21	Lingo1 (leucine rich repeat and Ig domain containing 1)	3	150 (active)	114
22	Marf1 (meiosis regulator and mRNA stability 1)	1	37.2	35.5
23	Marf1 (meiosis regulator and mRNA stability 1)	2	67	79.3
24	Marf1 (meiosis regulator and mRNA stability 1)	3	107	98.7
25	Mrpl40 (mitochondrial ribosomal protein L40)	1	77.5	62.4
26	Mrpl40 (mitochondrial ribosomal protein L40)	2	72.6	90.3
27	Mrpl40 (mitochondrial ribosomal protein L40)	3	78.6	56.1

Entries above whose target name starts with O or o (6):
target	reagent no.	GFP, % of control	viability (ATP), % of control
Or4c104 (olfactory receptor family 4 subfamily C member 104)	1	52.2	67.8
Or4c104 (olfactory receptor family 4 subfamily C member 104)	2	46.1	66.1
Or4c104 (olfactory receptor family 4 subfamily C member 104)	3	62.3	75.1
Or2w2 (olfactory receptor family 2 subfamily W member 2)	1	68.9	70.2
Or2w2 (olfactory receptor family 2 subfamily W member 2)	2	78	81.2
Or2w2 (olfactory receptor family 2 subfamily W member 2)	3	71	70.8

Additional results:
no.	target	reagent no.	GFP, % of control	viability (ATP), % of control
28	Selenoh (selenoprotein H)	1	54.1	58.3
29	Selenoh (selenoprotein H)	2	54.3	67.6
30	Selenoh (selenoprotein H)	3	65.4	70.5
31	Odad3 (outer dynein arm docking complex subunit 3)	1	65.4	44.2
32	Odad3 (outer dynein arm docking complex subunit 3)	2	86.9	71.6
33	Odad3 (outer dynein arm docking complex subunit 3)	3	108	86.6
34	Sry (sex determining region of Chr Y)	1	71.3	75.3
35	Sry (sex determining region of Chr Y)	2	64.7	76.7
36	Sry (sex determining region of Chr Y)	3	79.1	66.1
37	Sox11 (SRY (sex determining region Y)-box 11)	1	91.3	80.5
38	Sox11 (SRY (sex determining region Y)-box 11)	2	27.1	29.5
39	Sox11 (SRY (sex determining region Y)-box 11)	3	83	99
40	Sctr (secretin receptor)	1	84	40
41	Sctr (secretin receptor)	2	100	99.2
42	Sctr (secretin receptor)	3	61.5	64.8
43	Vnn3 (vanin 3)	1	54.2	90.3
44	Vnn3 (vanin 3)	2	81.9	117
45	Vnn3 (vanin 3)	3	44	45.8
46	Mrpl37 (mitochondrial ribosomal protein L37)	1	33.6	35.9
47	Mrpl37 (mitochondrial ribosomal protein L37)	2	52.2	74.9
48	Mrpl37 (mitochondrial ribosomal protein L37)	3	86.2	66.3
49	B4gat1 (beta-1,4-glucuronyltransferase 1)	1	135 (active)	104
50	B4gat1 (beta-1,4-glucuronyltransferase 1)	2	25.8	65.8
51	B4gat1 (beta-1,4-glucuronyltransferase 1)	3	120	109
52	Mb (myoglobin)	1	90	111
53	Mb (myoglobin)	2	141 (active)	83
54	Mb (myoglobin)	3	76.1	87
55	Wbp4 (WW domain binding protein 4)	1	75.3	65.3
56	Wbp4 (WW domain binding protein 4)	2	62.8	62.5
57	Wbp4 (WW domain binding protein 4)	3	84.2	85.5
